Assay results taken from paper PMC5572705.
These are yes or no findings as the source states them, for the method shown. Binding seen in cells or lysates may run through a third protein. Some binding calls cover weakened binding; strength is not graded here.

By UniProt entry, the sequences of proteins in these tests, tags left out.
UniProt Q13547: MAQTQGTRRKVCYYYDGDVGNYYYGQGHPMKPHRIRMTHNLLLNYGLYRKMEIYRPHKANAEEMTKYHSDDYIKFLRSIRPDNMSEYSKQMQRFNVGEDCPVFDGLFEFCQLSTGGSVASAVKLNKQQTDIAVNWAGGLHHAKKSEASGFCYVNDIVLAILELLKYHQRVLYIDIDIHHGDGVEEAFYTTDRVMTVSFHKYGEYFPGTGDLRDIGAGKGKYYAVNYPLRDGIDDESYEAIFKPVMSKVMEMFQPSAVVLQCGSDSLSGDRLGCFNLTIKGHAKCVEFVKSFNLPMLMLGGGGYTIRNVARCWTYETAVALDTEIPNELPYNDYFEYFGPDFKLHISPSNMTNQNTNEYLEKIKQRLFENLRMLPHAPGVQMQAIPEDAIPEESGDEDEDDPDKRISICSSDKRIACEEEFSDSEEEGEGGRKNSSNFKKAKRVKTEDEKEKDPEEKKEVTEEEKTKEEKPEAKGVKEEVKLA

Molecular target: HDAC1 (histone deacetylase-1) (human (endogenous in THP-1)) (UniProt Q13547)
Assay: co-IP; 1 mg total cell lysate in IP buffer (20 mM HEPES pH 7.9, 75 mM KCl, 2.5 mM MgCl2, 0.1% NP-40) with 5 ug anti-HDAC1 rabbit antibody, 4 C, 3 h; Dynabeads Protein G; five washes; western blot of co-precipitated proteins; cells differentiated (Fig. 3i) or arrested in G1 with mimosine (Fig. 4j)

B1: RB1/p105 (protein, UniProt P06400 1-928)
chain: MPPKTPRKTAATAAAAAAEPPAPPPPPPPEEDPEQDSGPEDLPLVRLEFEETEEPDFTALCQKLKIPDHVRERAWLTWEKVSSVDGVLGGYIQKKKELWGICIFIAAVDLDEMSFTFTELQKNIEISVHKFFNLLKEIDTSTKVDNAMSRLLKKYDVLFALFSKLERTCELIYLTQPSSSISTEINSALVLKVSWITFLLAKGEVLQMEDDLVISFQLMLCVLDYFIKLSPPMLLKEPYKTAVIPINGSPRTPRRGQNRSARIAKQLENDTRIIEVLCKEHECNIDEVKNVYFKNFIPFMNSLGLVTSNGLPEVENLSKRYEEIYLKNKDLDARLFLDHDKTLQTDSIDSFETQRTPRKSNLDEEVNVIPPHTPVRTVMNTIQQLMMILNSASDQPSENLISYFNNCTVNPKESILKRVKDIGYIFKEKFAKAVGQGCVEIGSQRYKLGVRLYYRVMESMLKSEEERLSIQNFSKLLNDNIFHMSLLACALEVVMATYSRSTSQNLDSGTDLSFPWILNVLNLKAFDFYKVIESFIKAEGNLTREMIKHLERCEHRIMESLAWLSDSPLFDLIKQSKDREGPTDHLESACPLNLPLQNNHTAADMYLSPVRSPKKKGSTTRVNSTANAETQATSAFQTQKPLKSTSLSLFYKKVYRLAYLRLNTLCERLLSEHPELEHIIWTLFQHTLQNEYELMRDRHLDQIMMCSMYGICKVKNIDLKFKIIVTAYKDLPHAVQETFKRVLIKEEEYDSIIVFYNSVFMQRLKTNILQYASTRPPTLSPIPHIPRSPYKFPSSPLRIPGGNIYISPLKSPYKISEGLPTPTKMTPRSRILVSIGESFGTSEKFQKINQMVCNSDRVLKRSAEGSNPPKPLKKLRFDIEGSDEADGSKHLPGESKFQQKLAEMTSTRTRMQKQKMNDSMDTSNKEEK
- binding: binds
